Source: PubChem BioAssay AID1259254 (NCATS, 2017)
Aim: 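Gene knock-downs that lead to re-replication, shown by excess G2 DNA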 (primary screen). Cell system: human HCT116 colorectal cancer cells. Reagent: single siRNA against human genes. Time to read-out: 3 days. Detection: 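Imaged Hoechst DNA stain sorts each cell into a cycle phase by DNA amount; per plate, G2 fraction set to 0% for non-targeting and 100% for GMNN siRNA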. Direction: G2 robust z-score: higher = more G2 cells, more excess DNA replication. Active means: 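Active siRNAs have a G2 robust z of 5 or more median absolute deviations over the median, which in these data means about 38% or higher of GMNN control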.
The deposit covers about 59,000 reagents; below is an unselected part. Over the whole deposit, about 1,550 (2.6%) got an active call. 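G2 share is only a proxy for re-replication; each gene was hit by three separate siRNAs, and active genes were retested.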 Unmarked entries are inactive. The numbers tell different reagents against one gene apart. Not all columns of the deposit are shown. The record does not give: the amount of reagent.

G2 robust z-score, by gene knocked down and reagent
KDM4A (lysine demethylase 4A): #1 2.1; #2 2.14; #3 6.1 (active)
MAN2C1 (mannosidase alpha class 2C member 1): #1 -0.198; #2 0.186; #3 0.891
DMAC1 (distal membrane arm assembly component 1): #1 0.735; #2 2.08; #3 0.245
EIF4A3 (eukaryotic translation initiation factor 4A3): #1 0.809; #2 0.755; #3 -0.56
SLC35A5: #1 -0.342; #2 -0.755; #3 -1.05
EFNB3 (ephrin B3): #1 0.251; #2 -0.685; #3 -0.159
PARD3B (par-3 family cell polarity regulator beta): #1 -0.475; #2 1.94; #3 -0.31
PLAAT2 (phospholipase A and acyltransferase 2): #1 -0.853; #2 2.12; #3 -0.0698
NHSL3 (NHS like 3): #1 -0.473; #2 -0.579; #3 0.368
KIF5B (kinesin family member 5B): #1 -0.616; #2 0.808; #3 0.571
WNK1 (WNK lysine deficient protein kinase 1): #1 -0.467; #2 2.81; #3 2.41; #4 -0.537; #5 -0.0889; #6 -0.705
DNAJB2 (DnaJ heat shock protein family (Hsp40) member B2): #1 -0.715; #2 -0.811; #3 -0.74
IFNK (interferon kappa): #1 -0.724; #2 -0.617; #3 1.8
NDC1 (NDC1 transmembrane nucleoporin): #1 -0.209; #2 -0.046; #3 0.942
LLPHP3 (LLPH pseudogene 3): #1 2.1; #2 -0.312; #3 -0.524
